No constants are given. Whether binding was seen depends on the method and setting. In cells and extracts the contact can be indirect. Some entries that bind do so weakly or less than the wild type.
Target: Protein A-Protein G fused DddA (pAG-DddA, His-tagged)
Test: pull-down

B1: immunity protein DddAI (protein)
chain: MYADDFDGEIEIDEVDSLVEFLSRRPAFDANNFVLTFEESGFPQLNIFAKNDIAVVYYMDIGENFVSKGNSASGGTEKFYENKLGGEVDLSKDCVVSKEQMIEAAKQFFATKQRPEQLTWSEL
Q: B1 was tested. Which binding did it give?
A: The binding was “binds”.

From article doi:10.1101/2024.12.24.630236
